Assay results from PMC3871820.
Read-outs that look alike come from different tables or passages of the source. No constants are given. Whether binding was seen depends on the method and setting. One block for each molecule: values may come before it.

By UniProt entry, the sequences of proteins in these tests, tags left out.
UniProt O64647: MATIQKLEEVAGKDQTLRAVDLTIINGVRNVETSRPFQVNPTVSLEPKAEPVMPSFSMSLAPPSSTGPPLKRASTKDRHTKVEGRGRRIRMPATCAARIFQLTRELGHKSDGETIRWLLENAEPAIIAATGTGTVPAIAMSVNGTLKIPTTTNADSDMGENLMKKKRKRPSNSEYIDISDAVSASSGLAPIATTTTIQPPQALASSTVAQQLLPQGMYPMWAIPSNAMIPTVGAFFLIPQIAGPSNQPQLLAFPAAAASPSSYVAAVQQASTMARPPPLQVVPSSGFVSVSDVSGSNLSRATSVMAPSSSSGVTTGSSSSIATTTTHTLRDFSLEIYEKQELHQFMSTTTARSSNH
UniProt Q9LSD5: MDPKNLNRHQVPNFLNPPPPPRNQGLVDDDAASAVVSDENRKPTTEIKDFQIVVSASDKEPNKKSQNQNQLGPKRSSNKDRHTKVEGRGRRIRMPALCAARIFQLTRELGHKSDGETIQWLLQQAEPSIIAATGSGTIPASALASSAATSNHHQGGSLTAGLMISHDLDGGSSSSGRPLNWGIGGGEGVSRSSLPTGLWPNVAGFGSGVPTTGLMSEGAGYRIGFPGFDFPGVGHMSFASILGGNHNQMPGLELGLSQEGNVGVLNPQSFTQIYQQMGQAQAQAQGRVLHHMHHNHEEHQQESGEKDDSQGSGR

Key:
[1] = target: TCP9 (Arabidopsis thaliana) (UniProt O64647); test: two-hybrid; matrix-based GAL4 yeast two-hybrid by mating (baits in PJ69-4alpha, preys in PJ69-4a); selection on SD-Leu-Trp-Ade or SD-Leu-Trp-His with 5 and 10 mM 3-amino-1,2,4-triazole; scored after 5 days at 30 °C; BD baits of TCP1, 2, 4, 10, 12, 18, 20 and 24 excluded for auto-activation; positive only if reproducible with at least two selection markers
[2] = target: TCP9 (Arabidopsis thaliana) (UniProt O64647); test: as above; remark: listed apart in the source

B1: TCP4 (protein, UniProt Q8LPR5 1-420)
chain: MSDDQFHHPPPPSSMRHRSTSDAADGGCGEIVEVQGGHIVRSTGRKDRHSKVCTAKGPRDRRVRLSAHTAIQFYDVQDRLGFDRPSKAVDWLIKKAKTSIDELAELPPWNPADAIRLAAANAKPRRTTAKTQISPSPPPPQQQQQQQQLQFGVGFNGGGAEHPSNNESSFLPPSMDSDSIADTIKSFFPVIGSSTEAPSNHNLMHNYHHQHPPDLLSRTNSQNQDLRLSLQSFPDGPPSLLHHQHHHHTSASASEPTLFYGQSNPLGFDTSSWEQQSSEFGRIQRLVAWNSGGGGGATDTGNGGGFLFAPPTPSTTSFQPVLGQSQQLYSQRGPLQSSYSPMIRAWFDPHHHHQSISTDDLNHHHHLPPPVHQSAIPGIGFASGEFSSGFRIPARFQGQEEEQHDGLTHKPSSASSISRH
binding [2]: no binding

B2: TCP2 (protein, UniProt Q93V43 1-365)
chain: MIGDLMKNNNNGDVVDNEVNNRLSRWHHNSSRIIRVSRASGGKDRHSKVLTSKGPRDRRVRLSVSTALQFYDLQDRLGYDQPSKAVEWLIKAAEDSISELPSLNNTHFPTDDENHQNQTLTTVAANSLSKSACSSNSDTSKNSSGLSLSRSELRDKARERARERTAKETKERDHNHTSFTDLLNSGSDPVNSNRQWMASAPSSSPMEYFSSGLILGSGQQTHFPISTNSHPFSSISDHHHHHPHHQHQEFSFVPDHLISPAESNGGAFNLDFNMSTPSGAGAAVSAASGGGFSGFNRGTLQSNSTNQHQSFLANLQRFPTSESGGGPQFLFGALPAENHHHNHQFQLYYENGCRNSSEHKGKGKN
binding [2]: no binding

B4: TCP10 (protein, UniProt O82277 1-361)
chain: MGLKGYSVGEGGGEIVEVQGGHIIRATGRKDRHSKVFTSKGPRDRRVRLSAHTAIQFYDVQDRLGYDRPSKAVDWLIKKAKTAIDKLELGETTTTTTRQEPVNTKPESPTLVFQRENNDQTQFVAANLDPEDAMKTFFPATTTTNGGGGTNINFQNYPHQDDNNMVSRTTTPPPNLSQDLGLSLHPFQGNNNTVVVPETNNFTTTHFDTFGRISGWNHHDLTMTSSSSSEHQQQEQEERSNGGFMVNHHPHHHHHQPSMMTLLNSQQQQVFLGGQQQQQQRGTLQSSLFPHSFRSWDHHQTTSDHHHHQNQASSMFASSSQYGSHGMMMMQGLSFPNTTRLLHGEEATQPNSSSSPPNSHL
binding [2]: no binding

The remaining lines, values ahead:

binding [1]: no binding
Molecule: TCP20 (from UniProt Q9LSD5 1-314)

binding [2]: no binding
B3: TCP24 (protein, UniProt Q9C758 1-324)
chain: MEVDEDIELQKHQEQQSRKLQRFSEDNTGLMRNWNNPSSRIIRVSRASGGKDRHSKVLTSKGLRDRRIRLSVATAIQFYDLQDRLGFDQPSKAVEWLINAASDSITDLPLLNTNFDHLDQNQNQTKSACSSGTSESSLLSLSRTEIRGKARERARERTAKDRDKDLQNAHSSFTQLLTGGFDQQPSNRNWTGGSDCFNPVQLQIPNSSSQEPMNHPFSFVPDYNFGISSSSSAINGGYSSRGTLQSNSQSLFLNNNNNITQRSSISSSSSSSSPMDSQSISFFMATPPPLDHHNHQLPETFDGRLYLYYGEGNRSSDDKAKERR
